Where two headings read alike, the source gives them in different places. No constants are given. Whether binding was seen depends on the method and setting. Binding seen in cells or lysates may run through a third protein. Some binding calls cover weakened binding; strength is not graded here.
B1: β-dystroglycan (protein, UniProt Q62165 652-893)
chain: SIVVEWTNNTLPLEPCPKEQIIGLSRRIADENGKPRPAFSNALEPDFKALSIAVTGSGSCRHLQFIPVAPPSPGSSAAPATEVPDRDPEKSSEDDVYLHTVIPAVVVAAILLIAGIIAMICYRKKRKGKLTLEDQATFIKKGVPIIFADELDDSKPPPSSSMPLILQEEKAPLPPPEYPNQSMPETTPLNQDTVGEYTPLRDEDPNAPPYQPPPPFTAPMEGKGSRPKNMTPYRSPPPYVPP
B2: cavin-1 (full-length) (protein, UniProt O54724 1-392)
chain: MEDVTLHIVERPYSGFPDASSEGPEPTQGEARATEEPSGTGSDELIKSDQVNGVLVLSLLDKIIGAVDQIQLTQAQLEERQAEMEGAVQSIQGELSKLGKAHATTSNTVSKLLEKVRKVSVNVKTVRGSLERQAGQIKKLEVNEAELLRRRNFKVMIYQDEVKLPAKLSVSKSLKESEALPEKEGDELGEGERPEDDTAAIELSSDEAVEVEEVIEESRAERIKRSGLRRVDDFKKAFSKEKMEKTKVRTRENLEKTRLKTKENLEKTRHTLEKRMNKLGTRLVPVERREKLKTSRDKLRKSFTPDHVVYARSKTAVYKVPPFTFHVKKIREGEVEVLKATEMVEVGPEDDEVGAERGEATDLLRGSSPDVHTLLEITEESDAVLVDKSDSD
B3: cavin-2 (protein, UniProt Q63918 1-418)
chain: MGEDAAQAEKFQHPNTDMLQEKPSSPSPMPSSTPSPSLNLGSTEEAIRDNSQVNAVTVHTLLDKLVNMLDAVRENQHNMEQRQINLEGSVKGIQNDLTKLSKYQASTSNTVSKLLEKSRKVSAHTRAVRERLERQCVQVKRLENNHAQLLRRNHFKVLIFQEESEIPASVFVKEPVPSAAEGKEELADENKSLEETLHNVDLSSDDELPRDEEALEDSAEEKMEESRAEKIKRSSLKKVDSLKKAFSRQNIEKKMNKLGTKIVSVERREKIKKSLTPNHQKASSGKSSPFKVSPLSFGRKKVREGESSVENETKLEDQMQEDREEGSFTEGLSEASLPSGLMEGSAEDAEKSARRGNNSAVGSNADLTIEEDEEEEPVALQQAQQVRYESGYMLNSEEMEEPSEKQVQPAVLHVDQTA
B4: cavin-3 (protein, UniProt Q91VJ2 1-260)
chain: MGESALEPGPVPETPAGGPVHAVTVVTLLEKLATMLEALRERQGGLAERQGGLAGSVRRIQSGLGALSRSHDTTSNTLTQLLAKAERVGSHADAAQERAVRRAAQVQRLEANHGLLVARGKLHVLLFKEETEIPARAFQKVPELLGPEDQLVLGPDQPEDEVGESSEEEPVESRAQRLRRTGLQKVQSLKRALSSRKAAQPTPVKPPRVGPVRSSEGPSEGQPAAQPEMESELETALEPEPPQPTKEDPEKPVLQIESAA
B5: cavin-4 (protein, UniProt A2AMM0 1-362)
chain: MEHNGSASNAGKIHQNRLSSVTEDEDQDAALTIVTVLDRVASVVDSVQASQKRIEERHREMGNAIKSVQIDLLKLSQSHSNTGYVVNKLFEKTRKVSAHIKDVKARVEKQQVRVTKVETKQEEIMKKNKFRVVIFQEDIPCPASLSVVKDRSLPENQEEAEEVFDPPIELSSDEEYYVEESRSARLRKSGKEHIDHIKKAFSRENMQKTRQTLDKKVSGIRTRIVTPERRERLRQSGERLRQSGERLRQSGERFKKSISSAAPSKEAFKIRSLRKAKDPKAEGQEVDRGMGVDIISGSLALGPIHEFHSDEFSETEKEVTKGGYSPQEGGDPPTPEPLKVTFKPQVRVEDDESLLLELKQSS
B6: β1-syntrophin (protein, UniProt Q99L88 1-537)
chain: MAVAAAAVAAPAGGGGARAQRSGLLEVLVRDRWHKVLVNLSEDALVLSCEEGAAAYNGIGAATNGSFCRGSGTGHPVPGVAQAPDSPAGVRTAFTDLPEQVPESISNQKRGVKVLKQELGGLGISIKGGKENKMPILISKIFKGLAADQTQALYVGDAILSVNGADLRDATHDEAVQALKRAGKEVLLEVKYMREATPYVKKGSPVSEIGWETPPPESPRLGGGSAEPLSSQSFSFHRDRKSIPLKMCYVTRNMTLADPENRQLEIHSPDAKHTVILRSKDSATAQAWFSAIHSNAGDLLTRVVADIREQLGKTGIAGSREIRHLGWLAEKVPGESEKQWKPALVVLTEKDLLIYDSMPRRKEAWFSPVHSYPLLATRLVHSGPGKGSPQAGMDLSFATRTGTKQGIETHLFRAEISRDLSHWTRSIVQGCHNSAELTAEITTACTYRNQECRLTIHYDNGFSISTEPQDGAFPKTIIQSPYEKLKMSSDDGIRMLYLDFGGKEGEIQLDLHSCPKPIVFIIHSFLSAKITRLGLVA
B7: α1-dystrobrevin (protein, UniProt Q9D2N4 1-746)
chain: MIEDSGKRGNTMAERRQLFAEMRAQDLDRIRLSTYRTACKLRFVQKKCNLHLVDIWNVIEALRENALNNLDPNIELNVARLEAVLSTIFYQLNKRMPTTHQIHVEQSISLLLNFLLAAFDPEGHGKISVFAVKMALATLCGGKIMDKLRYIFSMISDSSGVMVYGRYDQFLREVLKLPTAVFEGPSFGYTEQSARSCFSQQKKVTLNGFLDTLMSDPPPQCLVWLPLLHRLANVENVFHPVECSYCHSESMMGFRYRCQQCHNYQLCQDCFWRGHAGGSHSNQHQMKEYTSWKSPAKKLTNALSKSLSCASSREPLHPMFPDQPEKPLNLAHIVPPRPVTSMNDTLFSHSVPSSGSPFITRSSPPKDSEVEQNKMLARAAPAFLKGRGIQYSLNVADRLADEHVLIGLYVNMLRNDPPCMLESSNRLDEEHRLIARYAARLAAESSSSQPTQQRSAPDISFTIDANKQQRQLIAELENKNREILQEIQRLRVEHEQASQPTPEKAQQNPTLLAELRLLRQRKDELEQRMSALQESRRELMVQLEGLMKLLKEEELKQGTQGASSPRSSPSHTISRPIPMPIRSASACPTPTHTPQDSLTGVGGDVQEAFAQSSRRNLRSDLLVAADSITNTMSSLVKELNSEVASETESTVDSEFSRPQFEDLAPSPTSEKAFLAQIHSRKPGYIHGGAASTTHGDMVPEDGDPYTQPEDGNYENESVRQLENELQLEEYLKQKLQDEAYQVSLQG
B8: caveolin-3 (protein, UniProt P51637 1-151)
chain: MMTEEHTDLEARIIKDIHCKEIDLVNRDPKNINEDIVKVDFEDVIAEPEGTYSFDGVWKVSFTTFTVSKYWCYRLLSTLLGVPLALLWGFLFACISFCHIWAVVPCIKSYLIEIQCISHIYSLCIRTFCNPLFAALGQVCSNIKVVLRREG

Sequences of proteins named here, by UniProt entry; tags and fusion partners are left off.
UniProt P11531: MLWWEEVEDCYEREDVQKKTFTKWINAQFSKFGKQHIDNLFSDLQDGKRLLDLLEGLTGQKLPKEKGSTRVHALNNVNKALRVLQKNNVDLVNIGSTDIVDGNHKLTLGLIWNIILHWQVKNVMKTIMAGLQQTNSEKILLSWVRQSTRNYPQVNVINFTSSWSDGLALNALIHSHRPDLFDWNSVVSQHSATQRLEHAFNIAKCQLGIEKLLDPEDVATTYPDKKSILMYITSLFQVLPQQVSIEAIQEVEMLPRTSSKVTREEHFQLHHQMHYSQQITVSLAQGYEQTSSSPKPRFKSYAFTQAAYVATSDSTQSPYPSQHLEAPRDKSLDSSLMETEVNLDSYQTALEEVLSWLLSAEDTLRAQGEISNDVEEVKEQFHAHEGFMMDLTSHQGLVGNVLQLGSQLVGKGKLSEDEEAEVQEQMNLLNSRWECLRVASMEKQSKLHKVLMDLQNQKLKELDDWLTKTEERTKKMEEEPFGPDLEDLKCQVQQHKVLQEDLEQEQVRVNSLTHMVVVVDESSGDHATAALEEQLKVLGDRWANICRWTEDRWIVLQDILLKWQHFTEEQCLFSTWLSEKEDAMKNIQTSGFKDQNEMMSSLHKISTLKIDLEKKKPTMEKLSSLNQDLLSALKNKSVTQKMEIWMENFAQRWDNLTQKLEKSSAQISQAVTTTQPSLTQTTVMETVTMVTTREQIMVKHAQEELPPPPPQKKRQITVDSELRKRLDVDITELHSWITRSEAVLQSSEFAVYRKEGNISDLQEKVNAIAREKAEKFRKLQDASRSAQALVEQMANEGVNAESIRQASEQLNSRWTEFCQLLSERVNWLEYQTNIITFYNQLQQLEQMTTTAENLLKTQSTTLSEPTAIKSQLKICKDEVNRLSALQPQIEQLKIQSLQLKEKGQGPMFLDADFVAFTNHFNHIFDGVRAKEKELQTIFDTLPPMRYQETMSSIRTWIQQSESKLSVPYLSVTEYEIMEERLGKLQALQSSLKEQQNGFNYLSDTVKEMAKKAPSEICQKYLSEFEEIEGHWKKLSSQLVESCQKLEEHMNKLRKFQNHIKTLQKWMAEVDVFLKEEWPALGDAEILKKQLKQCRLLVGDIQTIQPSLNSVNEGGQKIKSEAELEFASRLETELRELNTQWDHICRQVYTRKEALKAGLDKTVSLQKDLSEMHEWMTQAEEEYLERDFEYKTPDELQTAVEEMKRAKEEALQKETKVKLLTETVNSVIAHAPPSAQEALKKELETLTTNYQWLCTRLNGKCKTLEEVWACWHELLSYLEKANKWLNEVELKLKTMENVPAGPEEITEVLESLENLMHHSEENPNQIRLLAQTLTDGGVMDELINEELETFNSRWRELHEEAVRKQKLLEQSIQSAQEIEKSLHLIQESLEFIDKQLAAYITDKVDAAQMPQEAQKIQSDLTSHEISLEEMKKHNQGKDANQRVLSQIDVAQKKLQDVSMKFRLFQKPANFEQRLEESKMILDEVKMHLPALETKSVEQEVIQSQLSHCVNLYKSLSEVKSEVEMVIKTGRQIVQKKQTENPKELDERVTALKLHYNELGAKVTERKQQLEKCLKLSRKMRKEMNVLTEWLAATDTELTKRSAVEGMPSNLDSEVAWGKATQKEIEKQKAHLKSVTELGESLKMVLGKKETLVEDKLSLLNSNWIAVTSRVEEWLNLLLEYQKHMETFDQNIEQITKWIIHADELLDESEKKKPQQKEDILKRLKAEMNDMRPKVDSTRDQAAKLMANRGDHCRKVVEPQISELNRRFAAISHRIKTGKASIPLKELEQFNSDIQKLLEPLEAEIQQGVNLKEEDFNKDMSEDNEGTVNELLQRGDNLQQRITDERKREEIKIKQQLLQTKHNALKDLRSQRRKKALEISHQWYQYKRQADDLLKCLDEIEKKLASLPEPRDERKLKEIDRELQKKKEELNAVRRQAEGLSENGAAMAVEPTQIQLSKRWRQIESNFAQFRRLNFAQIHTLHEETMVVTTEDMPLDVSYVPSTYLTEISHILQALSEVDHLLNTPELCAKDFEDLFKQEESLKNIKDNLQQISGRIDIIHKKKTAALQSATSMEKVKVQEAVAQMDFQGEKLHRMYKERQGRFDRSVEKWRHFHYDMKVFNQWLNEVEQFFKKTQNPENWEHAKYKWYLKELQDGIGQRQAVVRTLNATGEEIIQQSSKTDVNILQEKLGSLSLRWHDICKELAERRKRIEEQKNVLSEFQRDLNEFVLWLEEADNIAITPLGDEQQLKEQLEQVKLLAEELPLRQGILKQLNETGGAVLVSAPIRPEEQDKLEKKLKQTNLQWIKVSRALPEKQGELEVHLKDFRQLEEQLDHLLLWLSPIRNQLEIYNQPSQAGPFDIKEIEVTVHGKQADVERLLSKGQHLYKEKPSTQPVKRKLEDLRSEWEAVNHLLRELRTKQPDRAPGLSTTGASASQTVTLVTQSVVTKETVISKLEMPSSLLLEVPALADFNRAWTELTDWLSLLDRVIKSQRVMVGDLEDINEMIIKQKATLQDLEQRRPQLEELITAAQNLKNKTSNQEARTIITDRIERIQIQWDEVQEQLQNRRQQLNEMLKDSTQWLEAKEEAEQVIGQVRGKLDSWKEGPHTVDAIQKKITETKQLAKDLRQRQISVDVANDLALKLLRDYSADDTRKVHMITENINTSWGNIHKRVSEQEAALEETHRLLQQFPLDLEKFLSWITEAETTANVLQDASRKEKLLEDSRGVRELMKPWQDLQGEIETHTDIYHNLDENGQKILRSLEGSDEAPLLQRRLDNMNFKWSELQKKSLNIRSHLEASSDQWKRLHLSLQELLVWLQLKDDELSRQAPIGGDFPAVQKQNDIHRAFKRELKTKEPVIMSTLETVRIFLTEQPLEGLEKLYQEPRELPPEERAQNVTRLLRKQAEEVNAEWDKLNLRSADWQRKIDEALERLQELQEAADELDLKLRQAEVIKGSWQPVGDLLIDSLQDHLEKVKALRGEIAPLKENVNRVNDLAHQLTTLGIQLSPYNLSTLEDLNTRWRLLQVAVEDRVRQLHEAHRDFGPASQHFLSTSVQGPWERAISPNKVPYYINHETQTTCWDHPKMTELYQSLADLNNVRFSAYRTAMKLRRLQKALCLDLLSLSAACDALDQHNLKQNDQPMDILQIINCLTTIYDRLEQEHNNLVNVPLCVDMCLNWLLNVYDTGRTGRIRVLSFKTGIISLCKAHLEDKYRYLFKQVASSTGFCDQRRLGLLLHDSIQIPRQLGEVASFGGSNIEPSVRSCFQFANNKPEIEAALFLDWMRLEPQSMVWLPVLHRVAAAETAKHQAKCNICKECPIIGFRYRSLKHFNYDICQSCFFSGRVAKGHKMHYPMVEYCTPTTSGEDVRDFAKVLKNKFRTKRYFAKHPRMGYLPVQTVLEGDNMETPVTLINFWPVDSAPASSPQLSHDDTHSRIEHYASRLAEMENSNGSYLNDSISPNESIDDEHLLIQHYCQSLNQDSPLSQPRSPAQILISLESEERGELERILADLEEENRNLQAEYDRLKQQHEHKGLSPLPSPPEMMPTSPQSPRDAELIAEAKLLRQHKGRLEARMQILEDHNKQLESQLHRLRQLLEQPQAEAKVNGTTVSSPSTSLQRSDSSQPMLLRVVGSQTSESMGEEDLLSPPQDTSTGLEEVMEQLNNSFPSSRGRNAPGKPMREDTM

Tests used:
[1] = target: dystrophin (full-length) (mouse (endogenous in heart)) (UniProt P11531); test: co-IP; IP with the MANEX1011B monoclonal antibody from cardiac lysates of wild-type (dystrophin) and μDYS-mdx^5cv (μDys) mice, western blot of the IPs; controls: MANEX1011B IPs from mdx^5cv lysates and IPs with the MW8 control antibody
[2] = target: dystrophin (full-length) (mouse (endogenous in heart)) (UniProt P11531); test: as above; remark: listed apart in the source

Molecule	binding [1]	binding [2]
Ahnak1 (from UniProt E9Q616 1-5656)	binds	–
B1	–	binds
B2	–	binds
B3	–	binds
B4	–	binds
B5	–	binds
B6	–	binds
B7	–	binds
B8	–	no binding

From article PMC8255133
